Data: patent publication US20230348607A1 (EXELIXIS, published 2023)
No constants are given. Whether binding was seen depends on the method and setting. Some results given as binding are weak or reduced against the parent protein; the word gives no strength.

What was measured:
[1] = target: T1, human AMHR-II receptor expressed at the surface of the COV434-AMHR-II transfected cell line (human) (UniProt Q16671); assay: flow cytometry (figure legend)
T1 sequence: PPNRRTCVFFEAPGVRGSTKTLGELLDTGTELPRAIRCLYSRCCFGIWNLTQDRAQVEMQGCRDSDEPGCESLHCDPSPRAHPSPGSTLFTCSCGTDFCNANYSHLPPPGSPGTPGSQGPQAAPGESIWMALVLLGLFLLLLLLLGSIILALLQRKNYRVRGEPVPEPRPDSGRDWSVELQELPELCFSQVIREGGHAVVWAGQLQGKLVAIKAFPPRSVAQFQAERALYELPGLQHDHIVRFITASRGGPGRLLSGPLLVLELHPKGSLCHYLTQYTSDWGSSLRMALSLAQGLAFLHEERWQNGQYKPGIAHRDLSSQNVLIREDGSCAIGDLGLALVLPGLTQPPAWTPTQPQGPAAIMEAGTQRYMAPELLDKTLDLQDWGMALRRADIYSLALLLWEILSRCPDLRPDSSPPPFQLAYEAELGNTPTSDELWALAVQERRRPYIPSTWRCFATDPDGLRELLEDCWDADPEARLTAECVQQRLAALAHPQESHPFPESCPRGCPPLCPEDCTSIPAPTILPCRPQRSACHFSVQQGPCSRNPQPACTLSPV

[2] = target: T1, human AMHR-II receptor expressed at the surface of the COV434-AMHR-II transfected cell line (human); assay: flow cytometry, 10 µg/ml 4A3

B1: anti-AMHR-II 4A3 antibody (antibody, human IgG1, lambda, V domains shown)
VH: EVQLVESGGSLVKPGGSLRLSCAASGFTFSNNAMNWVRQAPGKGLEWISYISGSSRYISYADFVKGRFTISRDNAKNSLYLQMNSLRAEDTAVYYCVRSSDDYFGGGMDVWGRGTLVTVSS
VL: QSVLTQPASVSGSPGQSITISCAGTSSDVGGDNDVSWYQQHPGKAPKLMIYYDSYRPSGVSNRFSGSKSGNTASLTISGLQAEDEADYYCSSSTYYSTRVFGGGTKLTVLG
notes: The tie is therefore indirect; 4A3 was detected with anti-human F(ab')2 and anti-human IgG secondary reagents; also called antibody 4A3; 4A3 antagonist antibody
binding [1]: binds | binding [2]: binds
